Reference: PMC5495831
No constants are given. Whether binding was seen depends on the method and setting. Binding seen in cells or lysates may run through a third protein. Some binding calls cover weakened binding; strength is not graded here.

Chains of the proteins cited; added tags and fusions are not shown. Residues count along the entry.
UniProt Q63604, residues 32-821: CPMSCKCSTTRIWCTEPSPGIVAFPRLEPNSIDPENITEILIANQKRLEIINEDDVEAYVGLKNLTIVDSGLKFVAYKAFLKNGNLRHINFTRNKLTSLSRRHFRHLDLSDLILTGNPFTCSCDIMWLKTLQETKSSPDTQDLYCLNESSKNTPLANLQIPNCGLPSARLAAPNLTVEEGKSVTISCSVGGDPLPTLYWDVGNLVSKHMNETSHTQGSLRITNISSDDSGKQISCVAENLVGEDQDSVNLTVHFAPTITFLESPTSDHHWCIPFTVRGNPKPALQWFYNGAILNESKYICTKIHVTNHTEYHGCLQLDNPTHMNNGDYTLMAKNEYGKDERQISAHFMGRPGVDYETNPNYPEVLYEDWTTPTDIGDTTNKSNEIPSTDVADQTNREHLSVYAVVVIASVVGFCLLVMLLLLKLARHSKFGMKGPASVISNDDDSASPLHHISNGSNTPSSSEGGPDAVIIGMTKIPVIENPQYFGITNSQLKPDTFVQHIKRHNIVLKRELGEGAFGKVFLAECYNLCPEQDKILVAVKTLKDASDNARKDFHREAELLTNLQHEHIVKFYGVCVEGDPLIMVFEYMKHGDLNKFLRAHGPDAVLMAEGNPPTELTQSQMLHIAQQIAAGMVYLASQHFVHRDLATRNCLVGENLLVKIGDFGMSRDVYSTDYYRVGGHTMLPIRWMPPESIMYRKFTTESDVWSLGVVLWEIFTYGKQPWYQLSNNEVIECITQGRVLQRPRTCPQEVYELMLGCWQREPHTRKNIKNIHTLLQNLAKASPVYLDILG
UniProt P29476: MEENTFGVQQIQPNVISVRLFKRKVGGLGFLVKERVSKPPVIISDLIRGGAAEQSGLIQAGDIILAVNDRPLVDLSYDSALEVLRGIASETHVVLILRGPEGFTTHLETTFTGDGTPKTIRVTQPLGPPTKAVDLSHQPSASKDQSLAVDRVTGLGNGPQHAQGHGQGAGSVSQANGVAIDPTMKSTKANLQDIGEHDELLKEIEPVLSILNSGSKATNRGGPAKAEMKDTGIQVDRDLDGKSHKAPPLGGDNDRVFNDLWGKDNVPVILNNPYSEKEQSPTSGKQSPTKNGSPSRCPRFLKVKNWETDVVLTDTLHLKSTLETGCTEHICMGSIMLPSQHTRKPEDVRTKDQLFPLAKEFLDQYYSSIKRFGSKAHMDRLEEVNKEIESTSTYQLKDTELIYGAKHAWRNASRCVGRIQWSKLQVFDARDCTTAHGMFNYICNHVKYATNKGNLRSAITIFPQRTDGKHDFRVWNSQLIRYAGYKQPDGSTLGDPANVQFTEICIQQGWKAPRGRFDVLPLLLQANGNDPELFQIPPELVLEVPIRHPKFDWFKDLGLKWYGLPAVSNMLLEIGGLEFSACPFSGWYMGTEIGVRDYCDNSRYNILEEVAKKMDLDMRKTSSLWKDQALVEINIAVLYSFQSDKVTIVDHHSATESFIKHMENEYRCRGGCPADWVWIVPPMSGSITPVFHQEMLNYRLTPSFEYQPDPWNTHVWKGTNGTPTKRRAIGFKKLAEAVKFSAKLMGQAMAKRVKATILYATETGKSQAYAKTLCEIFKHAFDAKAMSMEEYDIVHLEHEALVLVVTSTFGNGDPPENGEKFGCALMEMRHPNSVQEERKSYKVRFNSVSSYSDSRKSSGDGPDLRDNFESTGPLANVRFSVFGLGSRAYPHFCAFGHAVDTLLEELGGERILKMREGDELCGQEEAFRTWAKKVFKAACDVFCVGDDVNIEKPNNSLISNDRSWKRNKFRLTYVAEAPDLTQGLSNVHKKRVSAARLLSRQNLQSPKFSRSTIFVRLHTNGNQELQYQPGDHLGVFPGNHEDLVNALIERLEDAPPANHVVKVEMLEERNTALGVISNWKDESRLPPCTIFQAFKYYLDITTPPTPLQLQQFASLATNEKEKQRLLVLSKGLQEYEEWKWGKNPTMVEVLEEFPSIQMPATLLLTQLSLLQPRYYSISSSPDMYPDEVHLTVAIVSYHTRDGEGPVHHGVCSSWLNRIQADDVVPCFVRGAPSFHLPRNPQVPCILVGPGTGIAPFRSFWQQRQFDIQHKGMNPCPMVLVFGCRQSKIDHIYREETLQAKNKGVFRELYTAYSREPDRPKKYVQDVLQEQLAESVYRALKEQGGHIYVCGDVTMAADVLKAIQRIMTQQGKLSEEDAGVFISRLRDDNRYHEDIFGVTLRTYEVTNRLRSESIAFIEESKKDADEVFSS

Target: BDNF receptor TrkB (rat (endogenous in primary cortical and hippocampal neuronal cultures)) (UniProt Q63604)
Assay: co-IP; cultured cell lysates (300 ug protein) of hippocampal or cortical cultures solubilized 2 h in 50 mM Tris-HCl pH 7.5, 1% sodium deoxycholate, 4°C; overnight with TrkB antibody (Upstate # 07-225) or normal rabbit IgG; Sepharose-protein G beads; five washes with deoxycholate buffer; Western …

## neuronal nitric oxide synthase (from UniProt P29476 1-1429) (enzyme)
  binding: no binding

B1: endothelial nitric oxide synthase (enzyme, UniProt Q62600 1-1202)
chain: MGNLKSVGQEPGPPCGLGLGLGLGLCGKQGPASPAPEPSQAPVPPSPTRPAPDHSPPLTRPPDGPKFPRVKNWEVGSITYDTLSAQAQQDGPCTPRRCLGSLVFPRKLQSRPTQGPSPTEQLLGQARDFINQYYNSIKRSGSQAHEQRLQEVEAEVVATGTYQLRESELVFGAKQAWRNAPRCVGRIQWGKLQVFDARDCRTAQEMFTYICNHIKYATNRGNLRSAITVFPQRYAGRGDFRIWNSQLVRYAGYRQQDGSVRGDPANVEITELCIQHGWTPGNGRFDVLPLLLQAPDEPPELFTLPPELVLEVPLEHPTLEWFAALGLRWYALPAVSNMLLEIGGLEFPAAPFSGWYMSSEIGMRDLCDPHRYNILEDVAVCMDLDTRTTSSLWKDKAAVEINVAVLYSYQLAKVTIVDHHAATASFMKHLENEQKARGGCPADWAWIVPPISGSLTPVFHQEMVNYFLSPAFRYQPDPWKGSAAKGTGITRKKTFKEVANAVKISASLMGTVMAKRVKATILYGSETGRAQSYAQQLGRLFRKAFDPRVLCMDEYDVVSLEHEALVLVVTSTFGNGDPPENGESFAAALMEMSGPYNSSPRPEQHKSYKIRFNSVSCSDPLVSSWRRKRKESSNTDSAGALGTLRFCVFGLGSRAYPHFCAFARAVDTRLEELGGERLLQLGQGDELCGQEEAFRGWAQAAFQAACETFCVGEDAKAAARDIFSPKRSWKRQRYRLSTQAESLQLLPRLTHVHRRKMFQATILSVENLQSSKSTRATILVRLDTGSQEGLQYQPGDHIGVCPPNRPGLVEALLSRVEDPPPSTEPVAVEQLEKGSPGGPPPGWVRDPRLPPCTLRQALTYFLDITSPPSPRLLRLLSTLAEESSEQQELEALSQDPRRYEEWKWFRCPTLLEVLEQFPSVALPAPLILTQLPLLQPRYYSVSSAPSAHPGEIHLTVAVLAYRTQDGLGPLHYGVCSTWMSQLKAGDPVPCFIRGAPSFRLPPDPNLPCILVGPGTGIAPFRGFWQDRLHDIEIKGLQPAPMTLVFGCRCSQLDHLYRDEVLDAQQRGVFGQVLTAFSRDPGSPKTYVQDLLRTELAAEVHRVLCLEQGHMFVCGDVTMATSVLQTVQRILATEGSMELDEAGDVIGVLRDQQRYHEDIFGLTLRTQEVTSRIRTQSFSLQERQLRGAVPWSFDPPTQETPGS
  binding: binds
